Patent US9682930B2, “Rheumatoid arthritis treatment” (Avexxin AS, priority 2011, dated 2017)
Some entries share one result that the patent states for a list of compounds. At least one compound was matched to its structure with a doubt left.

System: PGE2 production in SW982 cells
Test: TNF induced PGE2 production in SW982 cells (EIA/ELISA)
Type: cell-based
Conditions: 2.5 μM
Method: PGE2 production was monitored by ELISA. Those cells receiving treatment underwent reincubation (prior to stimulation) with either Compound 1 (AVX001) or Compound 2 (AVX002) for 2 hours.
FIGS. 3A and 3B show the determination of IC50 values for Compound 1 and Compound 2 inhibition of TNF induced PGE2 production in SW982 cells. […] corresponds to the PGE2 level induced with TNFα in combination with ethanol after incubation for 24 hours.
The Cell Culture SW982 model cell line at a confluent or spheroid state (Wada Y, 2005) was used since gene expression and generation of proinflammatory cytokines resemble RA-derived synovial fibroblast-like cells.
For stimulation experiments 0.5 mL of a cell suspension (5-7×10^5 cells/mL) were seeded inside the inner wells of 48-well plates. The outer wells were filled with 0.5 mL PBS. For nearly confluent populations, cells were incubated for one day (37° C., 5% CO2). In order to yield post-confluent cells, plates were left in the incubator for 3 days. […]
Samples and controls were slowly thawed and diluted (between 1:1 and 1:2500) in the standard diluent. […] In the beginning all values were determined from duplicates. After having minimized technical errors, samples were only analyzed as individuals. […] The read-out was carried out with a Multiscan plate reader (Ascent Labsystems) at wavelengths of 414 and 595 nm after 10 seconds shaking at 120 rpm. […]

`CC/C=C\C/C=C\C/C=C\C/C=C\C/C=C\CCSCC(=O)C(F)(F)F` [Compound 2] was tested, and the “Inhibition of TNF induced PGE2 production” value was greater than 100%.
